One assay has as its target Flag-HOIP (human) (UniProt Q96EP0). In words: co-IP; HEK 293T cells co-transfected with Myc-tagged candidate and Flag-HOIP or Flag-OTULIN; lysis in 50 mM Tris-HCl pH 7.4, 150 mM NaCl, 5 mM EDTA, 1% Triton X-100; protein A/G agarose, 4 C overnight; immunoblot. For orientation: In western blotting, separated proteins are transferred to a membrane and probed.
In a further assay the target is PSMB4 (human) (UniProt P28070). In words: peptide or protein array; HuProt human proteome microarray; 5 ug/5 ml biotin-labelled LUBAC or OTULIN in solution, 1 h at room temperature; Cy5-streptavidin, scanned at 635 nm; BSA as negative control; hits: Z-score >= 3 and I_(Mean_Ratio) >= 1.4; both purified.

Sequences of proteins named here, by UniProt entry; tags and fusion partners are left off. A change or cut given only in a name is not applied to a line headed by its entry.
UniProt P28070: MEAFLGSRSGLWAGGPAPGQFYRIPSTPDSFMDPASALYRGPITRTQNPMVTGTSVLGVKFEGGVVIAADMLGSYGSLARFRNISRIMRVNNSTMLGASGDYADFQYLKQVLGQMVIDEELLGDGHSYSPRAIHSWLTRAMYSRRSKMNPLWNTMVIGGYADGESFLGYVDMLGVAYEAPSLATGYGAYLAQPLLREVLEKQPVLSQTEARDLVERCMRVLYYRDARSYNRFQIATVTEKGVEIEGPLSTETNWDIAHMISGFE
UniProt P18627: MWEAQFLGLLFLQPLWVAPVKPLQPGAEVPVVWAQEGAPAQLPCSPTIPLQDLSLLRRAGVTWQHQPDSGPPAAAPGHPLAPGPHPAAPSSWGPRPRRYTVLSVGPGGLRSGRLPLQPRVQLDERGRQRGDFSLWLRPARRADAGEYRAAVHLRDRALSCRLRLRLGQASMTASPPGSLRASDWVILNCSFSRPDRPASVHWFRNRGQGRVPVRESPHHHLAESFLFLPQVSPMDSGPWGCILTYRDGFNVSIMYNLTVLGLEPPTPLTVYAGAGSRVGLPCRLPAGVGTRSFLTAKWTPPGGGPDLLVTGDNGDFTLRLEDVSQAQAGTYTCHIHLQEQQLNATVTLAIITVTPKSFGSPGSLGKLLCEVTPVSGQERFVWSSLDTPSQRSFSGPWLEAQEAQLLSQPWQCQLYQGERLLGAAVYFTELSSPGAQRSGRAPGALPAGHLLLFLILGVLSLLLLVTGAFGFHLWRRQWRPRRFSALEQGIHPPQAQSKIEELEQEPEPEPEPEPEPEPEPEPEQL

No constants are given. Whether binding was seen depends on the method and setting. A result given as binding can be weak or reduced; the word gives no strength. For part of these data: In cells and extracts the contact can be indirect.

Take “Myc-LAG3-K0-S484A (from UniProt P18627) (receptor)”: in the assay with Flag-HOIP (human), the binding result is given as “binds”.

With “Myc-LAG3-K0-S497A (from UniProt P18627) (receptor)”, the binding entry with Flag-HOIP (human) is given as “binds”. Turning to “OTULIN (OTU deubiquitinase with linear linkage specificity, FAM105B), His-tagged, biotin-labelled (from UniProt Q96BN8 1-352) (enzyme)”, in the assay with PSMB4 (human), the binding result is recorded as “binds”.

The values are drawn from paper PMC8274477.
